Experimental findings from article PMC11264951 are described below.

Amino acid sequences for entries named in this document (tags omitted).
UniProt Q8JZQ9: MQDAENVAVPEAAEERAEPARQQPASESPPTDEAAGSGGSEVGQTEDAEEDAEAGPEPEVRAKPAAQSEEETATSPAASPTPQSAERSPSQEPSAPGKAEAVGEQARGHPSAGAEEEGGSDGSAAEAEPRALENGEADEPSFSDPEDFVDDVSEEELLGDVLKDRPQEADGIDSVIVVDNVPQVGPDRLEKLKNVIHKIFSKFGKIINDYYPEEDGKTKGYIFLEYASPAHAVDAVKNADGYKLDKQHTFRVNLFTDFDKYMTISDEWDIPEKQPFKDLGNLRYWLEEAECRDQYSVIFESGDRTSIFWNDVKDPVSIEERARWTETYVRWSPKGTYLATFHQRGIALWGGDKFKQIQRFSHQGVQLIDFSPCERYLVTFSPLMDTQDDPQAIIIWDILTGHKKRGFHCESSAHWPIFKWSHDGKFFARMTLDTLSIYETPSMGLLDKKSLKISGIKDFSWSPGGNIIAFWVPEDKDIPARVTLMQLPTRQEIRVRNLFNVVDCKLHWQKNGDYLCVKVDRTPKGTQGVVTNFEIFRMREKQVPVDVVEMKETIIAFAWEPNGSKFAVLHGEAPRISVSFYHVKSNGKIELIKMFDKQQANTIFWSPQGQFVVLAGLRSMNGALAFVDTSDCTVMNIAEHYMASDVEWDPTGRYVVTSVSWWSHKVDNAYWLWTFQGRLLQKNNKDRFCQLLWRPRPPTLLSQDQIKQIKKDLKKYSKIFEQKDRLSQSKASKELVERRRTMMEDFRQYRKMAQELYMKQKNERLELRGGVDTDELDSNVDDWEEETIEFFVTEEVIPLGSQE

The test deals with T1, methyltransferase-like protein 16 (METTL16) (mouse (endogenous in P10 testes)) (UniProt Q9CQG2).
T1 sequence: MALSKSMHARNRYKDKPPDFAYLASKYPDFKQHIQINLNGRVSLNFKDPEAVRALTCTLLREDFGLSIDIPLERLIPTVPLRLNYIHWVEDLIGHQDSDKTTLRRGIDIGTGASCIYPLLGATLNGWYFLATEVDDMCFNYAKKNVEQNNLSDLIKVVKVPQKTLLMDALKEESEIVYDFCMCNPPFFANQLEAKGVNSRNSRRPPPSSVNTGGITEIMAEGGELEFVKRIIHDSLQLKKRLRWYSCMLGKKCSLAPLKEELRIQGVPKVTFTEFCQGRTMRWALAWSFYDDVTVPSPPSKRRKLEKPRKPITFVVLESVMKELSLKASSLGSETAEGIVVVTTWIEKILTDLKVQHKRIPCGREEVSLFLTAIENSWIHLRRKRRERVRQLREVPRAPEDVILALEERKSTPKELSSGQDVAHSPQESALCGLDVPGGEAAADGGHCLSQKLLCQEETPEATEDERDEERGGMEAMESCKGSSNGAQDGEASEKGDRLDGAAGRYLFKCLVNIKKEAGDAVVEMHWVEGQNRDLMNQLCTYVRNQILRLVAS
The test is described as follows: co-IP; Co-IP applied to the mouse testes; told only in the discussion, no figure cited.

Results are given in words; binding and its absence hold for the method and conditions named. In cells and extracts the contact can be indirect.

As for eIF3B (from UniProt Q8JZQ9 1-803), the binding result is “no binding”.
